{"source": "PubChem BioAssay AID1259424 (University of Nebraska Medical Center, 2018)", "test": "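Rank knockdowns across the genome by resemblance to the KSR1 depletion profile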 (primary screen)", "cell system": "human HCT116 colon cancer cells", "knock-down reagent": "siRNA pool against human genes, 50 nM", "detection": "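Log2 levels of six mRNAs (branched-DNA multiplex), adjusted by two reference genes and the non-targeting median, then scored against the average KSR1 knockdown pattern as Pearson r and euclidean distance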", "scale": "mean correlation with KSR1 profile: higher = expression change more like KSR1 knockdown; mean distance from KSR1 profile: higher = expression change less like KSR1 knockdown", "note": "The whole screen tested about 14,000 reagents; shown is a random part of them. 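Higher correlation or smaller distance means closer resemblance to KSR1 loss; control wells, including KSR1 knockdowns, recur on many plates.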 Further read-outs or replicates are left out here. Not given: the time to read-out."}
{"Gene": "CTSF", "PubChem SID": "SID363994856", "mean correlation with KSR1 profile": 0.0672, "mean distance from KSR1 profile": 3.51}
{"Gene": "ALCAM", "PubChem SID": "SID363992852", "mean correlation with KSR1 profile": -0.5, "mean distance from KSR1 profile": 2.65}
{"Gene": "HOXD3", "PubChem SID": "SID363997655", "mean correlation with KSR1 profile": 0.0811, "mean distance from KSR1 profile": 2.12}
{"Gene": "WNT3", "PubChem SID": "SID364003407", "mean correlation with KSR1 profile": -0.216, "mean distance from KSR1 profile": 1.72}
{"Gene": "AHI1", "PubChem SID": "SID364000418", "mean correlation with KSR1 profile": -0.177, "mean distance from KSR1 profile": 1.85}
{"Gene": "TSHR", "PubChem SID": "SID363991700", "mean correlation with KSR1 profile": 0.192, "mean distance from KSR1 profile": 1.92}
{"Gene": "NDUFS4", "PubChem SID": "SID363993668", "mean correlation with KSR1 profile": 0.51, "mean distance from KSR1 profile": 0.737}
{"Gene": "TIPARP", "PubChem SID": "SID363999538", "mean correlation with KSR1 profile": 0.672, "mean distance from KSR1 profile": 0.964}
{"Gene": "COLGALT1", "PubChem SID": "SID364002950", "mean correlation with KSR1 profile": 0.569, "mean distance from KSR1 profile": 1.18}
{"Gene": "EDNRA", "PubChem SID": "SID363993169", "mean correlation with KSR1 profile": -0.231, "mean distance from KSR1 profile": 1.98}
{"Gene": "MBD4", "PubChem SID": "SID363994981", "mean correlation with KSR1 profile": -0.107, "mean distance from KSR1 profile": 2.25}
{"Gene": "MAGT1", "PubChem SID": "SID364003778", "mean correlation with KSR1 profile": 0.822, "mean distance from KSR1 profile": 1.12}
{"Gene": "NR2E1", "PubChem SID": "SID363994388", "mean correlation with KSR1 profile": -0.378, "mean distance from KSR1 profile": 1.73}
{"Gene": "SNX9", "PubChem SID": "SID363999962", "mean correlation with KSR1 profile": 0.571, "mean distance from KSR1 profile": 2.27}
{"Gene": "BBOF1", "PubChem SID": "SID364003225", "mean correlation with KSR1 profile": -0.164, "mean distance from KSR1 profile": 2.24}
{"Gene": "THNSL2", "PubChem SID": "SID364000932", "mean correlation with KSR1 profile": -0.107, "mean distance from KSR1 profile": 3.83}
{"Gene": "PDP2", "PubChem SID": "SID364001828", "mean correlation with KSR1 profile": -0.463, "mean distance from KSR1 profile": 2.39}
{"Gene": "EQTN", "PubChem SID": "SID364005092", "mean correlation with KSR1 profile": -0.417, "mean distance from KSR1 profile": 2.29}
{"Gene": "MTUS2", "PubChem SID": "SID364005302", "mean correlation with KSR1 profile": -0.0935, "mean distance from KSR1 profile": 1.03}
{"Gene": "INTS1", "PubChem SID": "SID364005378", "mean correlation with KSR1 profile": -0.11, "mean distance from KSR1 profile": 4.73}
{"Gene": "AKR1E2", "PubChem SID": "SID364003621", "mean correlation with KSR1 profile": -0.241, "mean distance from KSR1 profile": 1.71}
{"Gene": "ZBTB2", "PubChem SID": "SID364001873", "mean correlation with KSR1 profile": -0.649, "mean distance from KSR1 profile": 2.63}
{"Gene": "LTBP1", "PubChem SID": "SID363991944", "mean correlation with KSR1 profile": -0.366, "mean distance from KSR1 profile": 2.32}
{"Gene": "PSG6", "PubChem SID": "SID363993939", "mean correlation with KSR1 profile": 0.44, "mean distance from KSR1 profile": 1.54}
{"Gene": "TPTEP1", "PubChem SID": "SID363999683", "mean correlation with KSR1 profile": -0.122, "mean distance from KSR1 profile": 4.12}
{"Gene": "RPH3AL", "PubChem SID": "SID363997724", "mean correlation with KSR1 profile": -0.263, "mean distance from KSR1 profile": 4.08}
{"Gene": "PSIP1", "PubChem SID": "SID364002040", "mean correlation with KSR1 profile": -0.638, "mean distance from KSR1 profile": 2.24}
{"Gene": "SCYL3", "PubChem SID": "SID364001685", "mean correlation with KSR1 profile": 0.117, "mean distance from KSR1 profile": 2.8}

4 entries from above, set out differently:
Gene | PubChem SID | mean correlation with KSR1 profile | mean distance from KSR1 profile
PSG6 | SID363993939 | 0.44 | 1.54
TPTEP1 | SID363999683 | -0.122 | 4.12
RPH3AL | SID363997724 | -0.263 | 4.08
PSIP1 | SID364002040 | -0.638 | 2.24
